Values from PubChem BioAssay AID1224828 (NIAID, 2016).
Here is a random part of about 17,000 reagents. 762 of them (4.5%) count as active. 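Active calls include both raised and lowered p65 entry, mostly lowered; wells with fewer than 50 cells lack a z-score.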 The raw values are shown without normalisation. The numbers tell different reagents against one gene apart.

Assay: 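Knock-downs that increase or decrease LPS-induced p65 nuclear translocation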 (primary screen)
Cell system: mouse RAW264.7 G9 macrophage reporter cells (GFP-p65, Tnf promoter-mCherry)
Reagent: siRNA pool against mouse genes, 100 nM
Duration: 2 days siRNA transfection, then 40 min LPS before fixation
Challenge: LPS (Salmonella minnesota R595) at 10 ng/ml
Detection: 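Imaged p65 nuclear translocation ratio, normalised to the plate median, converted to robust z-scores and averaged across two replicates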
Scale: p65 translocation robust z-score: higher = more nuclear NF-kappaB p65 after LPS than the plate median; nuclear/cytoplasmic p65 ratio: higher = more nuclear NF-kappaB p65
Call rule: 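Called active when z exceeds 3.3 or falls under -1.56 (median of Tlr4 controls), giving activity score of at least 50; no calls for control wells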
Calls: active = hit (p65 shift raised or lowered); inactive = no clear change

The first 2 records, ahead of the listing:
Txlna: p65 translocation robust z-score = -0.21; nuclear/cytoplasmic p65 ratio, rep 1 = 1.58; nuclear/cytoplasmic p65 ratio, rep 2 = 1.39; low cell count flag = enough cells to score; Outcome = inactive
Gmeb2: p65 translocation robust z-score = 0.43; nuclear/cytoplasmic p65 ratio, rep 1 = 1.81; nuclear/cytoplasmic p65 ratio, rep 2 = 1.62; low cell count flag = enough cells to score; Outcome = inactive

The list itself, repeating the preview:
Txlna: p65 translocation robust z-score = -0.21; nuclear/cytoplasmic p65 ratio, rep 1 = 1.58; nuclear/cytoplasmic p65 ratio, rep 2 = 1.39; low cell count flag = enough cells to score; Outcome = inactive
Gmeb2: p65 translocation robust z-score = 0.43; nuclear/cytoplasmic p65 ratio, rep 1 = 1.81; nuclear/cytoplasmic p65 ratio, rep 2 = 1.62; low cell count flag = enough cells to score; Outcome = inactive
Or8g37: p65 translocation robust z-score = 0.88; nuclear/cytoplasmic p65 ratio, rep 1 = 1.57; nuclear/cytoplasmic p65 ratio, rep 2 = 1.34; low cell count flag = enough cells to score; Outcome = inactive
Col9a1: p65 translocation robust z-score = 0.38; nuclear/cytoplasmic p65 ratio, rep 1 = 1.54; nuclear/cytoplasmic p65 ratio, rep 2 = 1.42; low cell count flag = enough cells to score; Outcome = inactive
D830044D21Rik: p65 translocation robust z-score = 1.89; nuclear/cytoplasmic p65 ratio, rep 1 = 1.89; nuclear/cytoplasmic p65 ratio, rep 2 = 1.78; low cell count flag = enough cells to score; Outcome = inactive
Adam21: p65 translocation robust z-score = -0.67; nuclear/cytoplasmic p65 ratio, rep 1 = 1.43; nuclear/cytoplasmic p65 ratio, rep 2 = 1.66; low cell count flag = enough cells to score; Outcome = inactive
Ece2 #1: p65 translocation robust z-score = -0.19; nuclear/cytoplasmic p65 ratio, rep 1 = 1.39; nuclear/cytoplasmic p65 ratio, rep 2 = 1.37; low cell count flag = enough cells to score; Outcome = inactive
Ece2 #2: p65 translocation robust z-score = 0.41; nuclear/cytoplasmic p65 ratio, rep 1 = 1.52; nuclear/cytoplasmic p65 ratio, rep 2 = 1.69; low cell count flag = enough cells to score; Outcome = inactive
Asb10: p65 translocation robust z-score = -0.35; nuclear/cytoplasmic p65 ratio, rep 1 = 1.57; nuclear/cytoplasmic p65 ratio, rep 2 = 1.44; low cell count flag = enough cells to score; Outcome = inactive
Zfp1006: p65 translocation robust z-score = 1.51; nuclear/cytoplasmic p65 ratio, rep 1 = 1.56; nuclear/cytoplasmic p65 ratio, rep 2 = 1.66; low cell count flag = enough cells to score; Outcome = inactive
Plppr4: nuclear/cytoplasmic p65 ratio, rep 1 = 1.66; nuclear/cytoplasmic p65 ratio, rep 2 = 1.74; low cell count flag = fewer than 50 cells per well; well left out of scoring; Outcome = inactive
H2ac18: p65 translocation robust z-score = 0.69; nuclear/cytoplasmic p65 ratio, rep 1 = 1.67; nuclear/cytoplasmic p65 ratio, rep 2 = 1.53; low cell count flag = enough cells to score; Outcome = inactive
Glrx3: p65 translocation robust z-score = -1.21; nuclear/cytoplasmic p65 ratio, rep 1 = 1.23; nuclear/cytoplasmic p65 ratio, rep 2 = 1.11; low cell count flag = enough cells to score; Outcome = inactive
Celf5: nuclear/cytoplasmic p65 ratio, rep 1 = 1.49; nuclear/cytoplasmic p65 ratio, rep 2 = 1.71; low cell count flag = fewer than 50 cells per well; well left out of scoring; Outcome = inactive
